From paper doi:10.1101/2025.07.29.667382 (bioRxiv, 2025) come the findings set out here.

Holding throughout (assay): co-IP
The target in assay [1] is T1, Vps35^QGRE-yomCherry (yeast (strain BY4742)) (UniProt P34110).
T1 sequence: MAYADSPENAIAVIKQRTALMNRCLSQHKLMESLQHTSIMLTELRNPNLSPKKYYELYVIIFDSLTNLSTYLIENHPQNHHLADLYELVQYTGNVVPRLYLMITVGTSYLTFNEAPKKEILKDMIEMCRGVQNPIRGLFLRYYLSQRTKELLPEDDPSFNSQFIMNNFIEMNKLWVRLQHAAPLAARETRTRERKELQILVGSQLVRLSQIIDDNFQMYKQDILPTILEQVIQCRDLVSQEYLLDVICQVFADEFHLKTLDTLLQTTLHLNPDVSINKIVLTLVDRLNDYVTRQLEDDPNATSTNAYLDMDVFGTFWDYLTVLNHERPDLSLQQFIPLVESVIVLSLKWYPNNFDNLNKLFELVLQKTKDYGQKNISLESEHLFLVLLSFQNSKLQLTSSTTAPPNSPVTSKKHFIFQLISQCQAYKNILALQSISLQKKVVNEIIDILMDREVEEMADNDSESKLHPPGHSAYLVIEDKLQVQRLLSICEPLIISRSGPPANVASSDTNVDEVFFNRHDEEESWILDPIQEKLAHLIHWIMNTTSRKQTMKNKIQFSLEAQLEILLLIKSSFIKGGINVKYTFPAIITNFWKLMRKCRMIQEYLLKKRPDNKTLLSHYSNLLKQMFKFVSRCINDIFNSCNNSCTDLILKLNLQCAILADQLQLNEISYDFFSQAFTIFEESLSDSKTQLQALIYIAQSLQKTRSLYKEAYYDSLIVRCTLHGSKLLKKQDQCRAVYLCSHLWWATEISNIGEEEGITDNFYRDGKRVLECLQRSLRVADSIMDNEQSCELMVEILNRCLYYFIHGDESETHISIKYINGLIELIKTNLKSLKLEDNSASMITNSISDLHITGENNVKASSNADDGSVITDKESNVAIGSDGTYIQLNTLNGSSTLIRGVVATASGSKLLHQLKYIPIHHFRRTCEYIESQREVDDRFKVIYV

The target in assay [2] is T2, Vps35^yomCherry (wildtype) (yeast (strain BY4742)) (UniProt P34110).
T2 sequence: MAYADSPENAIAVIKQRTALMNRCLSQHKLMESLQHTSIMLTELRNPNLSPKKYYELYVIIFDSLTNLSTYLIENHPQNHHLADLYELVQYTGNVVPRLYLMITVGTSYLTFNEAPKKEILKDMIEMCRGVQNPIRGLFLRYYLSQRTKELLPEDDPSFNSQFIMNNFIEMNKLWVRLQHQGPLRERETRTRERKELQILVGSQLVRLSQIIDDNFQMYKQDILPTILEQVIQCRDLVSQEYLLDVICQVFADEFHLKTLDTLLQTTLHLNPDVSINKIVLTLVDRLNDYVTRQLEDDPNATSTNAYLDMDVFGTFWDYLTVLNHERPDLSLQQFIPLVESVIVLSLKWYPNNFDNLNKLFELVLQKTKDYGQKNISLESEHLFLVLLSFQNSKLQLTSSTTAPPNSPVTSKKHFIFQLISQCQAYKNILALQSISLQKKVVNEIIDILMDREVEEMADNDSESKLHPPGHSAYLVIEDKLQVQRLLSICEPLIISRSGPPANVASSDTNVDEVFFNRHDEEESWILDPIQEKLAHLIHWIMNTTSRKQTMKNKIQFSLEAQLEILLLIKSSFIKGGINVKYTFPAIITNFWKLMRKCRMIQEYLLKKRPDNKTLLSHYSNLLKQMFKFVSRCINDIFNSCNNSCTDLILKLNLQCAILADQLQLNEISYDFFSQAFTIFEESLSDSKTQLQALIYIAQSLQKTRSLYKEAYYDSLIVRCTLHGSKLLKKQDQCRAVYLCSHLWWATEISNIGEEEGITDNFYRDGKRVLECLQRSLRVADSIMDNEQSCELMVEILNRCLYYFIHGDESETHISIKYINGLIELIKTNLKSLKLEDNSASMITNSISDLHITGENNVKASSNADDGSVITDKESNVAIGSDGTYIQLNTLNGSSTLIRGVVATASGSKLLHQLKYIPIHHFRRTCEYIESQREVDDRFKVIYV

Assay [3] deals with T3, Snx3^V5 (yeast (strain BY4742)) (UniProt Q08826).
T3 sequence: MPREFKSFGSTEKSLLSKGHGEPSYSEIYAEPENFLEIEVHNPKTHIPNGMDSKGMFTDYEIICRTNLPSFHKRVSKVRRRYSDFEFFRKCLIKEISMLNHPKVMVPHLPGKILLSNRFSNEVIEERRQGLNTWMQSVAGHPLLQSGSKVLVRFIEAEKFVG

These are yes or no findings as the source states them, for the method shown. Binding seen in cells or lysates may run through a third protein. Some results given as binding are weak or reduced against the parent protein; the word gives no strength. Sequences can lack the tags named with a protein.

B1: Vps5^HA (protein, UniProt Q92331 1-675)
chain: MDYEDNLEAPVWDELNHEGDKTQSLVSNSIESIGQISTNEERKDNELLETTASFADKIDLDSAPEWKDPGLSVAGNPQLEEHDNSKADDLINSLAPEQDPIADLKNSTTQFIATRESGGALFTGNANSPLVFDDTIYDANTSPNTSKSISGRRSGKPRILFDSARAQRNSKRNHSLKAKRTTASDDTIKTPFTDPLKKAEKENEFVEEPLDDRNERRENNEGKFTASVEKNILEQVDRPLYNLPQTGANISSPAEVEENSEKFGKTKIGSKVPPTEKAVAFKVEVKDPVKVGELTSIHVEYTVISESSLLELKYAQVSRRYRDFRWLYRQLQNNHWGKVIPPPPEKQSVGSFKENFIENRRFQMESMLKKICQDPVLQKDKDFLLFLTSDDFSSESKKRAFLTGSGAINDSNDLSEVRISEIQLLGAEDAAEVLKNGGIDAESHKGFMSISFSSLPKYNEADEFFIEKKQKIDELEDNLKKLSKSLEMVDTSRNTLAASTEEFSSMVETLASLNVSEPNSELLNNFADVHKSIKSSLERSSLQETLTMGVMLDDYIRSLASVKAIFNQRSKLGYFLVVIENDMNKKHSQLGKLGQNIHSEKFREMRKEFQTLERRYNLTKKQWQAVGDKIKDEFQGFSTDKIREFRNGMEISLEAAIESQKECIELWETFYQTNL
Turning to B1, the binding entry in assay [1] and in assay [2] was “binds” throughout.

B2: Snx3^V5 (protein, UniProt Q08826 1-162)
chain: MPREFKSFGSTEKSLLSKGHGEPSYSEIYAEPENFLEIEVHNPKTHIPNGMDSKGMFTDYEIICRTNLPSFHKRVSKVRRRYSDFEFFRKCLIKEISMLNHPKVMVPHLPGKILLSNRFSNEVIEERRQGLNTWMQSVAGHPLLQSGSKVLVRFIEAEKFVG
As to B2, the binding entry was “no binding” in assay [1] and “binds” in assay [2].

B3: Vps35^yomCherry (wildtype) (protein, UniProt P34110 1-944)
chain: MAYADSPENAIAVIKQRTALMNRCLSQHKLMESLQHTSIMLTELRNPNLSPKKYYELYVIIFDSLTNLSTYLIENHPQNHHLADLYELVQYTGNVVPRLYLMITVGTSYLTFNEAPKKEILKDMIEMCRGVQNPIRGLFLRYYLSQRTKELLPEDDPSFNSQFIMNNFIEMNKLWVRLQHQGPLRERETRTRERKELQILVGSQLVRLSQIIDDNFQMYKQDILPTILEQVIQCRDLVSQEYLLDVICQVFADEFHLKTLDTLLQTTLHLNPDVSINKIVLTLVDRLNDYVTRQLEDDPNATSTNAYLDMDVFGTFWDYLTVLNHERPDLSLQQFIPLVESVIVLSLKWYPNNFDNLNKLFELVLQKTKDYGQKNISLESEHLFLVLLSFQNSKLQLTSSTTAPPNSPVTSKKHFIFQLISQCQAYKNILALQSISLQKKVVNEIIDILMDREVEEMADNDSESKLHPPGHSAYLVIEDKLQVQRLLSICEPLIISRSGPPANVASSDTNVDEVFFNRHDEEESWILDPIQEKLAHLIHWIMNTTSRKQTMKNKIQFSLEAQLEILLLIKSSFIKGGINVKYTFPAIITNFWKLMRKCRMIQEYLLKKRPDNKTLLSHYSNLLKQMFKFVSRCINDIFNSCNNSCTDLILKLNLQCAILADQLQLNEISYDFFSQAFTIFEESLSDSKTQLQALIYIAQSLQKTRSLYKEAYYDSLIVRCTLHGSKLLKKQDQCRAVYLCSHLWWATEISNIGEEEGITDNFYRDGKRVLECLQRSLRVADSIMDNEQSCELMVEILNRCLYYFIHGDESETHISIKYINGLIELIKTNLKSLKLEDNSASMITNSISDLHITGENNVKASSNADDGSVITDKESNVAIGSDGTYIQLNTLNGSSTLIRGVVATASGSKLLHQLKYIPIHHFRRTCEYIESQREVDDRFKVIYV
B3: in assay [3], the binding entry is “binds”.
